Measurements reported in PubChem BioAssay AID1347426 (Functional Genomics Laboratory (NCATS/FGL), 2020).
In all, about 31,000 sequences went through this assay and about 1,400 (4.5%) were called active.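 How the source made its calls: active means median seed-adjusted z-score above 1 or below -1; inactive means the rest.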 The list shows a part of the results.

test: Novel Modifiers of Survival Motor Neuron (SMN) Protein: Gene Identification via Genome-wide siRNA Screen; settings: HEK293T SMN2-luciferase reporter, siRNA knockdown, 72 h; actives lie on both sides;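 further: luminescence tracks full-length SMN protein made from the SMN2 reporter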
Summary of the method: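 siRNA screen, 10418 genes ×3 siRNAs; 1 pmol/well, lipid reverse transfection into HEK293T SMN2-luc reporter line. 72 h, 37 °C, 5% CO2; ONE-Glo readout. Data: neg-ctrl normalized, log10, MAD; hit = MAD >1.0 or < -1.0.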

Sequence | median seed-adjusted z-score
CACAGACCGAGGAGAAAGATT against CRLF2 | inactive: 0.218
GAAUGAAGGUUUAUAUUGATT against EPHB3 | inactive: -0.407
GGAUCAUCAGACAAUUUUUTT against TMPRSS7 | inactive: 0.0269
GGCUUAUUAUUGUGACCAUTT against PREB | inactive: 0.182
GCAUGGAAGUGUACGAGUATT against THBS3 | inactive: 0.429
CUAUCGACAUCAAGAGUUUTT against PSPC1 | inactive: 0.0612
GAAGAUUCCUGAACGAGGATT against SELP | inactive: -0.879
AGGACGUGGUGGUAUUAGATT against AGXT2L2 | inactive: -0.0495
AUCUACUGCUUUUACGUCUTT against PIGQ | inactive: 0.00996
GUGAUAAUCCUGAGAGAUATT against EDNRA | inactive: 0.133
GCAUAGAUCCUGUUUCGUATT against OSBPL2 | inactive: 0
GGAUGUUCGUUCCUACAUUTT against LCT | inactive: 0.411
GCGAUUCUAUGUGCGAGUATT against CABIN1 | inactive: -0.446
CUACAGCGGAGGGAACAAATT against ABCA7 | inactive: -0.711
CAACCAUAGUUAAAGUUAATT against TCP1 | active: -1.02
GCAGCUUACAGAUUCGCUATT against MLLT10 | inactive: -0.147
GGAGGAUCCCAUUAUACUATT against LPA | inactive: -0.321
GGAACAAAGUCUCACAGAUTT against ZKSCAN1 | inactive: 0.229
CACUGAGUAUAGAACGGAATT against PTPRJ | inactive: 0.0522
CCCAUACUGUUACCCAUAATT against CHAC1 | inactive: 0.517
CUUCAUGACUGGACCCUCATT against AGFG2 | inactive: -0.289
ACCUGGUGUUUGUAGGCAATT against DNAL1 | inactive: 0.866

Sequence | median seed-adjusted z-score
GCUAUGCUAUCAAGAAUAUTT against DNM1 | inactive: 0.217
ACGAGUUUCUGGACAAGUUTT against CHST12 | inactive: 0
CUAUUCUAAUGCCUACUUUTT against SEMA5A | inactive: -0.443
UAACCCAUGUUUUACCUUUTT against ADH1A | inactive: 0.624
GGUCAUUGCCCGAACAAUATT against BNC1 | inactive: -0.631
CAUCUGACCCUAACUGAAATT against ZMYND10 | inactive: 0.255
CCUGAUCCACGAGAAGUCATT against SPATA20 | inactive: 0
CCAGUCGCGUAAGACAACATT against PYDC1 | active: -1.44
CAACAUCCACGGAGAUUGATT against BTBD2 | inactive: 0.0303
GAAAAGAUUUCGUCCUCAATT against FOXF2 | inactive: -0.608
CCAUCCUGUUUGUCACCUATT against HHATL | inactive: 0.497
GGCUAUACAUGGAUAGCAATT against SLITRK1 | inactive: 0.215
GAUGGUGGAUGCUUCCAAATT against DTYMK | inactive: -0.191
GGACGGGAACUACUUUGAATT against PDLIM3 | inactive: -0.297
GAGAGAAUCAUUACGAAAATT against MTMR2 | inactive: 0.495
CCUCAACACCUUACACUAATT against SMARCC2 | inactive: 0.0684
GCUGGGACCUAACAGGAUATT against ATP10B | inactive: 0.51
CAGAGGCAGUGAUAGAACATT against BHMT2 | inactive: -0.0704
GAACAAGUAGAGAAGAACATT against CLTB | inactive: 0.319
CCAGGAACCCGUCUCUCAATT against ATP5G1 | inactive: -0.311
GCGAUGCGGAAGAAGCUAATT against NCOR2 | inactive: -0.305
UCAUAGCAAAGAGAAGAUATT against HAVCR2 | inactive: 0.205

Sequence | median seed-adjusted z-score
CGAUAGACAGUAGACGAAUTT against RB1CC1 | inactive: 0.0878
CUCCCAUGAUGGCAUCUUATT against HSPB2 | inactive: 0.247
GGGUAAGCCCUUUAAAGGATT against ZNF594 | inactive: 0.491
GACUCCCAUUUGAGACUUUTT against ZMAT1 | inactive: -0.123
GUAUGAAAUUGAAACGGAUTT against KCNC2 | inactive: 0.3
CAAGCAGUUUCAUUUCAAATT against PCBD1 | inactive: 0
GUAAUUCCAUAUAAUCCUUTT against PRKCI | inactive: 0.386
CUGUUCUGCUUAUAUGGAATT against HNRPLL | inactive: 0
CGAUGUUGCUCUCCAUGGATT against RRN3 | inactive: 0.0382
CCAUUACAGAACAAUGAGATT against ABCD3 | inactive: -0.24
UAGCUUCGGUGAUCAAGAATT against ANXA9 | inactive: 0.055
GGAAGAUCAUGUUCGAAUATT against RGL1 | inactive: 0.0217
GGUGUGCAUUGAUGCGGAATT against DNMT1 | inactive: 0.185
GCACUGGACCAAUACAAGUTT against GPR84 | inactive: 0.285
AGUCAAUUCCUAUUGGUUUTT against HINT3 | inactive: 0
GGGUCAUGUUUGGUUAGAATT against IMMP1L | inactive: -0.444
CAGCAAGUCUCGAAGUAAUTT against LCLAT1 | inactive: 0
CCUUUAACGUGGACAUGUATT against GPS1 | inactive: 0.205
GGCUUGACCAUAAAGAACATT against IGF2BP2 | inactive: 0.281
GCUACAUACCUUCAUUUUATT against SLC22A9 | inactive: -0.778
CAAUGGAACAAUCAAAGUUTT against RAB31 | inactive: 0.41
GCCCUACGUUAACAACAAATT against SERPINB11 | inactive: 0

Sequence | median seed-adjusted z-score
GGACAUCUGGGUGAAGUUUTT against SNRPF | active: -2.66
GCUUCGGCCUUGUAUCAUUTT against CCNE1 | inactive: -0.693
CACCAGGUCUACAACCUAATT against FEZF2 | inactive: 0.203
GUAUCCCACUGUCCUAUAATT against SORL1 | inactive: 0.357
CUCCCUCACCAAAACAAAATT against DUSP26 | inactive: 0.204
CGGACAAUUUUAACCCUGUTT against M6PR | inactive: -0.879
CCUUAAGAGGGAUGAUAAATT against SAFB | inactive: -0.954
CGAUUUGUAUAGGAAGCAATT against NKX2-8 | inactive: 0.104
UCAUUGUCGUGAAUGCUGUTT against CHRNG | inactive: 0.221
CUGUUUCCCUGAUCUGGCATT against ETV2 | inactive: 0
CGAUCACCGUCACAGACUUTT against PCDHB14 | inactive: -0.229
CCAAGAACCUGAACUAUGATT against ALDH16A1 | inactive: 0.42
GAAUCAUGUUCGUUCAGGATT against NISCH | inactive: -0.0757
CGAAUAACCUUGAUUGACATT against TRPM6 | inactive: -0.0375
CUAUCAGGGAAAUUACGUATT against ZNF713 | inactive: -0.0652
GCUGUUACCUGUUUGAAAATT against ATM | inactive: 0.22
GAGGUUGACUUUCCAAUGATT against LCMT1 | inactive: 0.821
ACCGCAACUUUUGAGCUAATT against LCN12 | inactive: 0.124
GCUUCAAGCAGAACGUAAATT against SFRS8 | inactive: -0.353
ACAUGUUUGAGAACGGCAATT against FOXL1 | inactive: -0.448
CCGCCUCUUUGACUGGAUATT against MYO1A | inactive: -0.0501
AGUUUUUGCAGAACAAGGATT against SPIRE2 | inactive: 0.0604

Some values from the results shown.
In median seed-adjusted z-score, CGAUCACCGUCACAGACUUTT against PCDHB14 is listed with inactive: -0.229
In median seed-adjusted z-score, CGAUUUGUAUAGGAAGCAATT against NKX2-8 is listed with inactive: 0.104
In median seed-adjusted z-score, CGGACAAUUUUAACCCUGUTT against M6PR is listed with inactive: -0.879
In median seed-adjusted z-score, AGUUUUUGCAGAACAAGGATT against SPIRE2 is listed with inactive: 0.0604

The list continues.

Sequence | median seed-adjusted z-score
CAUCAGACAUUAUAUUGGUTT against EIF1AY | inactive: 0.00168
CGCCUUCGGUGGAAGUUAUTT against DPP7 | inactive: -0.217
CACCUUUAGUGAAGUAGAATT against CD46 | inactive: -0.0278
GAAUUAAAGAUUUGGUUGATT against EFCAB1 | inactive: -0.719
GGCUGUUAGGAGUAAAUCATT against ENPP3 | inactive: 0.66
GAAUUGACGAUGGUGCAAATT against NTRK2 | inactive: 0.103
GCUGAUCGGGAACAAGUCATT against RAB43 | inactive: -0.0845
CCAUCAAACUUGCAUCCCUTT against ISX | active: 1.99
GUAUACCAGGUAAAAAUAATT against RHOXF1 | inactive: 0.341
GUAUGGACACCAUUAGUAATT against DTX3L | inactive: 0.0785
AGUGAGUUACAAGACCUAATT against SLC22A5 | inactive: 0.349
GUUUAGAUCAUGCACCAUATT against LONRF1 | inactive: 0.743
GCGGCUUCCCUUCUAGUAATT against DNAJB12 | inactive: 0
CCAAUAUGACUAACCAGAATT against HDAC1 | inactive: -0.61
GGACAGAUAUCAUCAACGATT against LDLR | inactive: -0.142
CACCAUCUCCGGGAACAGATT against FUT1 | inactive: 0.000845
GGCCCAUGGAGUUUCUGAATT against UTP14A | inactive: -0.366
CAGUCGACCAGUACAUCAATT against PMS1 | inactive: 0.0538
CAAUAGGUUCAGCUCCAAATT against CLCNKB | inactive: 0.428
GACUGGUUAUUACGUCUUATT against SYNJ1 | inactive: 0
